In patent publication US12697353B2, “Compositions comprising cinnamaldehyde and zinc and methods of using such compositions” (SOCIÉTÉ DES PRODUITS NESTLÉ S.A., priority 2015, dated 2026):

Assay: comparative taste testing in human subjects
Type: in vivo
Settings: 4.8 ppm capsaicin or 350 ppm cinnamaldehyde, FIG. 9

| SMILES | participants who judged the taste intense to very intense [%] |
| --- | --- |
| COc1cc(CNC(=O)CCCC/C=C/C(C)C)ccc1O [capsaicin, reference compound] | 87.9 |
| O=CC=Cc1ccccc1 [cinnamaldehyde] | 20.5 |
